PubChem BioAssay AID493246, Drosophila RNAi Screening Center, 2011

- Aim: 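Genes fly cells need to grow and stay alive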 (primary screen)
- Cell system: Drosophila Kc and S2R+ cells
- Knock-down reagent: long dsRNA against Drosophila genes
- Measured: 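Raw, unnormalised count of remaining cells in each well; per-plate z-scores of cell number underlie the calls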
- Scale: Kc cell number and S2R+ cell number: higher = more cells remaining
- Call rule: 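Counted as a hit if cell number falls by a z-score of at least 3 within its plate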
The screen tested about 21,000 reagents; shown is an unselected part of those with a known target gene and a result. In the full data, 429 (2%) are marked active. 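Values are raw and not normalised between plates; calls rest on per-plate z-scores that were not deposited.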 A number with no mark means an inactive call. Names joined by + are all predicted targets of the reagent. No sequences are given here. Not stated in the record: the amount of reagent, the time to read-out.

target gene,dsRNA,"Kc cell number, rep 1","Kc cell number, rep 2","S2R+ cell number, rep 1","S2R+ cell number, rep 2"
ValRS-m (GeneID 39023),DRSC10535,1.47e6,1.74e6,1.16e6,1.23e6
sno (GeneID 32273),DRSC20378,5.64e5,,8.95e5,
Usp15-31 (GeneID 37954),DRSC04426,1.61e6,1.71e6,1.02e6,1.34e6
Usp15-31 (GeneID 37954),DRSC04532,1.39e6,1.45e6,1.13e6,1.37e6
CG5989 (GeneID 38984),DRSC10565,1.47e6,1.60e6,1.23e6,1.08e6
CG6867 (GeneID 32782),DRSC20013,1.57e6,1.57e6,1.03e6,1.18e6
CG15431 (GeneID 33646),DRSC00446,1.42e6,1.40e6,1.10e6,1.23e6
Proc (GeneID 250710),DRSC03009,3.48e5 (active),4.95e5,5.46e5,6.18e5
CG34221 (GeneID 5740574),DRSC06150,1.53e6,1.56e6,1.16e6,1.23e6
mRF1 (GeneID 34720),DRSC02880,1.32e6,1.39e6,1.20e6,1.26e6
CG34337 (GeneID 5740569),DRSC18435,1.62e6,1.58e6,1.11e6,1.22e6

Next part; the last 3 above are carried over.
target gene,dsRNA,"Kc cell number, rep 1","Kc cell number, rep 2","S2R+ cell number, rep 1","S2R+ cell number, rep 2"
CG34221 (GeneID 5740574),DRSC06150,1.53e6,1.56e6,1.16e6,1.23e6
mRF1 (GeneID 34720),DRSC02880,1.32e6,1.39e6,1.20e6,1.26e6
CG34337 (GeneID 5740569),DRSC18435,1.62e6,1.58e6,1.11e6,1.22e6
CG16989 (GeneID 31026),DRSC18535,1.46e6,1.42e6,9.57e5,1.04e6
Elovl7 (GeneID 40943),DRSC15452,1.56e6,1.66e6,1.36e6,1.51e6
Dpm1 (GeneID 35240),DRSC02018,1.51e6,1.71e6,1.30e6,3.81e5
MED31 (GeneID 40577),DRSC12142,1.42e6,1.55e6,1.18e6,1.34e6
Ugt303A1 (GeneID 53503),DRSC15641,1.63e6,1.54e6,1.32e6,1.37e6
Brd (GeneID 39620),DRSC09685,1.44e6,1.46e6,1.18e6,1.26e6
CG8677 + CG31626,DRSC01838,1.60e6,1.63e6,1.11e6,1.17e6
CG13018 (GeneID 50224),DRSC06274,1.72e6,1.90e6,1.43e6,1.60e6
CG18675 (GeneID 50169),DRSC08536,1.56e6,1.47e6,1.07e6,1.19e6
CG12446 (GeneID 33147),DRSC20618,1.41e6,1.46e6,1.05e6,1.15e6
Polr2K (GeneID 5740790),DRSC05535,1.90e6,1.95e6,1.05e6,1.20e6
CG14229 (GeneID 32980),DRSC19585,1.57e6,1.59e6,8.99e5,1.07e6
dpr16 (GeneID 40619),DRSC12217,1.60e6,1.83e6,1.26e6,1.39e6
